# Assay results taken from publication PMC5928155, “Sak4 of Phage HK620 Is a RecA Remote Homolog With Single-Strand Annealing Activity Stimulated by Its Cognate SSB Protein” (Frontiers in Microbiology, 2018).
# Results are given in words; binding and its absence hold for the method and conditions named. Some binding calls cover weakened binding; strength is not graded here.
# Key:
# [1] = target: SSB_(HK620), wild-type HkaK protein from phage HK620 (phage HK620) (UniProt Q9AZ30); experiment: SEC; as the gel filtration assay, with ATP added to the reaction and column buffer; data not shown; no ssDNA; both purified
# [2] = target: SSB_(HK620), wild-type HkaK protein from phage HK620 (phage HK620) (UniProt Q9AZ30); experiment: cross-linking; 1 mM Sulfo-EGS, 20 min at 20°C; 2 µg of each protein alone or together in 20 mM Hepes pH 7.5, 150 mM NaCl, 50% glycerol, with or without 1 mM ATP; SDS-PAGE and Coomassie; no ssDNA; both purified
binder,measurement,setting,value
"SSB_(HK620), wild-type HkaK protein from phage HK620 (natural protein, UniProt Q9AZ30 1-195, looked up, HkaK (first annotated Abc1) of phage HK620, a distant SSB homolog (Pfam DUF669); produced untagged; monomer 21.3 kDa; Untagged; also called Abc1_(HK620); HkaK/Abc1_(HK620); source: E. coli ER2566 with pSMG279, purified (PEI, ammonium sulfate, HiTrap Heparin)) MSNVIFTYNEEAALTAGQGGFINETGAHIITITEAELKQSEKGAKFIEFSGESDDGRKIQYLSVCVQKNDGTENKFGANVVHAMMGCAGIGQLTQHMVSASKFVAPEFHGKKIGLVLQKVLTTNKKTGADSYQMEIRIPFIAQTGQTLKEKAVGKQPETIANMVASLKDKDNRSKNVSQNHADDYGYSQNDYPPF",binding,[1],binds
same,binding,[2],binds
